The structures appear in SMILES notation.

The nature of series [1]: FET characteristics of organic transistor element of Example 2 (semiconductor active layer formed using compound alone, bottom gate/bottom contact). Particulars: source-drain −80 V; for Carrier mobility: compound alone cast from toluene, bottom gate/bottom contact, gate 20 V to −100 V, normal pressure/nitrogen atmosphere; for Threshold voltage shift after repeated driving: compound alone, repeatedly driven 100 times, gate +20 V to −100 V.

A short description of series [2]: FET characteristics of organic transistor element of Example 3 (semiconductor active layer formed using compound and PαMS binder together). The note with it: for Carrier mobility: compound 1 mg with 1 mg PαMS binder in toluene, bottom gate/bottom contact; for Threshold voltage shift after repeated driving: compound with PαMS binder, repeatedly driven 100 times.
The nature of series [3]: FET characteristics of organic transistor element of Example 4 (bottom gate/top contact, octyltrichlorosilane-treated SiO2). The note with it: for Carrier mobility: W=5 mm, L=80 μm, octyltrichlorosilane-treated SiO2 370 nm; for Threshold voltage shift after repeated driving: repeatedly driven 100 times.
[4] abbreviates: listed as comparative compound 1.
The mark [5] stands for this setting: listed as comparative compound 2.

Turning to `CCCCCCCCCCCCc1cc2cc3ccc4cc5cc(CCCCCCCCCCCC)sc5cc4c3cc2s1` [Compound 5], the Carrier mobility is 2.6 × 10^−2 cm^2/Vs in series [1], 7.3 × 10^−3 cm^2/Vs in series [2] and 8.9 × 10^−3 cm^2/Vs in series [3]. Besides, the “Threshold voltage shift after repeated driving” value (“Threshold voltage shift” for short) in series [1], in series [2] and in series [3] was “A (|Vafter−Vbefore|≦5 V)” in each case.
Consider `CCCCCCCCc1ccc(-c2cc3cc4ccc5cc6cc(-c7ccc(CCCCCCCC)s7)sc6cc5c4cc3s2)s1` [Compound 16], for which the results for the Carrier mobility in series [1] and in series [2] were 9.4 × 10^−2 cm^2/Vs and 1.2 × 10^−2 cm^2/Vs, respectively. The “Threshold voltage shift” value in series [1] and in series [2] was “A (|Vafter−Vbefore|≦5 V)” throughout.
As to `CCCCCCCCc1ccc(-c2cc3cc4ccc5cc6cc(-c7ccc(CCCCCCCC)cc7)sc6cc5c4cc3s2)cc1` [Compound 11], the Carrier mobility in series [1] is recorded as 1.6 × 10^−2 cm^2/Vs; in series [2] it was 1.5 × 10^−2 cm^2/Vs; in series [3], 6.5 × 10^−3 cm^2/Vs. The “Threshold voltage shift” value in series [1], in series [2] and in series [3] was “A (|Vafter−Vbefore|≦5 V)” throughout.
On to `Cc1c(C)n(-c2ccccc2)c2c1ccc1c3ccc4c(C)c(C)n(-c5ccccc5)c4c3ccc12` [compound 1, reference compound], for which the Carrier mobility in series [1] was 5.8 × 10^−5 cm^2/Vs; in series [1] (setting [4]) it was “low carrier mobility”; in series [2] it was 4.0 × 10^−5 cm^2/Vs; in series [2] (setting [4]), “low carrier mobility”; in series [3], 4.8 × 10^−5 cm^2/Vs; in series [3] (setting [4]), “low carrier mobility”. The “Threshold voltage shift” value in series [1], in series [2] and in series [3] was “C (|Vafter−Vbefore|>10 V)” each time.
With `CCCCCCCCc1cc2cc3ccc4cc5cc(CCCCCCCC)n(C)c5cc4c3cc2n1C` [Compound 3], in series [1], the Carrier mobility is recorded as 1.0 × 10^−3 cm^2/Vs and the “Threshold voltage shift” value is listed as “A (|Vafter−Vbefore|≦5 V)”.
For `c1ccc(-n2c3ccccc3c3cc4ccc5cc6c7ccccc7n(-c7ccccc7)c6cc5c4cc32)cc1` [compound 2, reference compound], the Carrier mobility in series [1] is 3.3 × 10^−5 cm^2/Vs; in series [1] (setting [5]), “low carrier mobility”; in series [2], 5.8 × 10^−5 cm^2/Vs; in series [2] (setting [5]), “low carrier mobility”; in series [3] it was 6.4 × 10^−5 cm^2/Vs; in series [3] (setting [5]), “low carrier mobility”. The “Threshold voltage shift” value in series [1], in series [2] and in series [3] was “C (|Vafter−Vbefore|>10 V)” throughout.
On to `CCCCCCCCc1csc(-c2cc3cc4ccc5cc6cc(-c7cc(CCCCCCCC)cs7)sc6cc5c4cc3s2)c1` [Compound 24], for which, in series [1], the Carrier mobility is listed as 6.6 × 10^−2 cm^2/Vs and the “Threshold voltage shift” value is listed as “A (|Vafter−Vbefore|≦5 V)”.
